Certain results were filed several times, with different values. This is not the full list of results. An entry can have further records. Values given together differ, and nothing given here explains why; they may come from other doses, times, organisms or constructs than stated.
Target: Pgp (LCC6MDR cells) (Homo sapiens, UniProt P08183)
Assay: Cell proliferation assay: Pgp-modulating activity, reversal of anticancer drug resistance in LCC6MDR cells
Details: RF = (IC50 without modulator)/(IC50 with 1.0 μM modulator), paclitaxel

The chains behind the UniProt entries cited, without tags or fusion partners.
UniProt P08183, whole entry: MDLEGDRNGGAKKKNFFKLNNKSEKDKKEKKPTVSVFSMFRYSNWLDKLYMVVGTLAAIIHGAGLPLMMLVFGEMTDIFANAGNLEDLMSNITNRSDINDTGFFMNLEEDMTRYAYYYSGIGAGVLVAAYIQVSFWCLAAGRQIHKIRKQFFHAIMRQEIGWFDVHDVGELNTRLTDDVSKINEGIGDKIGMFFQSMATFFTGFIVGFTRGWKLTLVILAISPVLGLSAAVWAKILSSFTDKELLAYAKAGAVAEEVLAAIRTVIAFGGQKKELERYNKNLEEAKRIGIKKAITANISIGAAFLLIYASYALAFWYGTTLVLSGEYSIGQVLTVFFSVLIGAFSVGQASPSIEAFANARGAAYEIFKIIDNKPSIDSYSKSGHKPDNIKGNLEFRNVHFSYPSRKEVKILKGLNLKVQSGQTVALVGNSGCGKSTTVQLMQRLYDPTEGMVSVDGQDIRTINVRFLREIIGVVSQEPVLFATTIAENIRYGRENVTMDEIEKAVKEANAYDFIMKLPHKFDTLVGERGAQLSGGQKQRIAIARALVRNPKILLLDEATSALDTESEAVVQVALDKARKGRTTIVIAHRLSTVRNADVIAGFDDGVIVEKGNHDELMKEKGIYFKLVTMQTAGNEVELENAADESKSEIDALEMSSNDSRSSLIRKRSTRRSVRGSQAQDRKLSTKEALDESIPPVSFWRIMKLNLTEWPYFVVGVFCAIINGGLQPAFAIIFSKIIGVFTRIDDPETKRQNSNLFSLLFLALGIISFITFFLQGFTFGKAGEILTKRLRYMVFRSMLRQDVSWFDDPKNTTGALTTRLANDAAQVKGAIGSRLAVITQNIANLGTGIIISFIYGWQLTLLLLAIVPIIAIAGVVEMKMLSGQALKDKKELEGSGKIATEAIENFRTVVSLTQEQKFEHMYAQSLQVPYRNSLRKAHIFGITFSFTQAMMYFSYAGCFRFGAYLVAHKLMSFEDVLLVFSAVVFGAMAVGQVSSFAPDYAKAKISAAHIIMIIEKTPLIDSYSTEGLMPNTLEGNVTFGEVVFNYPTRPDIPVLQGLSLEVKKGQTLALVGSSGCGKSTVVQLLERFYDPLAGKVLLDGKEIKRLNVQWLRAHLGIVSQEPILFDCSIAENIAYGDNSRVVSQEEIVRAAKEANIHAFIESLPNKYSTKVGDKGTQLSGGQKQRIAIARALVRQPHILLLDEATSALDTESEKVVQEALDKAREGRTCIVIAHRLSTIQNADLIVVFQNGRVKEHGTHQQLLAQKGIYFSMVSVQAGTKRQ

`CCN(CCOCCOc1ccc(-c2cc(=O)c3ccccc3o2)cc1)CCOCCOc1ccc(-c2cc(=O)c3ccccc3o2)cc1` [Compound 13, 1,13-Bis[4′-(4H-chromen-4-on-2-yl)phenyl]-N-(ethyl)-1,4,10,13-tetraoxa-7-azamidecane] was tested, and the “RF (Relative Fold), cpd at 1 μM” value was 95.7 and (95.7).

Reference: US8980848B2, “Flavonoid dimers and their use” (The Hong Kong Polytechnic University, priority 2010, dated 2015)
